Measured values published in patent publication US10563263B2, “Genetic polymorphisms associated with statin response and cardiovascular diseases, methods of detection and uses thereof” (CELERA CORPORATION, priority 2010, dated 2020).
Further values from the same series stand in other lists.

Test system: revascularization, unstable angina requiring hospitalization, MI, all causes of death, or stroke
Assay: PROVE IT-TIMI 22: SNP by treatment interaction (high-dose atorvastatin vs standard-dose pravastatin), logistic regression (synergy index), primary composite endpoint
Type: in vivo, human

## CC(C)c1c(C(=O)Nc2ccccc2)c(-c2ccccc2)c(-c2ccc(F)cc2)n1CC[C@@H](O)C[C@@H](O)CC(=O)O [Atorvastatin, atorvastatin]
PROVEIT, rs9857, caseonly, add, CVD
  OR: 0.78
PROVEIT, rs133871, caseonly, dom, CHD
  OR: 0.59
PROVEIT, rs581401, cohort, rec, CHD
  OR: 0.54
PROVEIT, rs603940, cohort, rec, CHD
  OR: 0.55
PROVEIT, rs623400, caseonly, dom, CVD
  OR: 0.65
PROVEIT, rs623584, cohort, rec, CHD
  OR: 0.56
PROVEIT, rs675163, caseonly, add, CVD
  OR: 0.58
PROVEIT, rs936671, caseonly, dom, CHD
  OR: 0.64
PROVEIT, rs1068705, caseonly, dom, CHD
  OR: 0.58
PROVEIT, rs1129570, caseonly, add, CHD
  OR: 1.41
PROVEIT, rs1155875, caseonly, add, CHD
  OR: 0.79
PROVEIT, rs1352236, caseonly, rec, CHD
  OR: 0.39
PROVEIT, rs1505469, caseonly, add, CHD
  OR: 1.85
PROVEIT, rs1531842, caseonly, dom, CHD
  OR: 0.67
PROVEIT, rs1536506, caseonly, rec, CVD
  OR: 1.44
PROVEIT, rs1564078, caseonly, add, CHD
  OR: 0.86
PROVEIT, rs1866386, caseonly, add, CVD
  OR: 0.77
PROVEIT, rs2184393, caseonly, dom, CHD
  OR: 0.75
PROVEIT, rs2748901, cohort, rec, CHD
  OR: 1.43
PROVEIT, rs2869680, caseonly, add, CVD
  OR: 0.72
PROVEIT, rs2880563, caseonly, dom, CVD
  OR: 1.51
PROVEIT, rs3800202, cohort, add, CHD
  OR: 0.59
PROVEIT, rs4251580, caseonly, add, CVD
  OR: 0.64
PROVEIT, rs4689078, caseonly, add, CVD
  OR: 1.20
PROVEIT, rs5764592, caseonly, dom, CVD
  OR: 1.48
PROVEIT, rs6435378, caseonly, dom, CHD
  OR: 0.74
PROVEIT, rs6848512, caseonly, dom, CVD
  OR: 0.64
PROVEIT, rs7623808, caseonly, rec, CVD
  OR: 4.79
PROVEIT, rs7770578, caseonly, add, CHD
  OR: 0.65
PROVEIT, rs7915250, caseonly, dom, CVD
  OR: 0.66
PROVEIT, rs9986576, caseonly, rec, CVD
  OR: 2.00
PROVEIT, rs10106852, caseonly, rec, CVD
  OR: 2.19
PROVEIT, rs10181805, caseonly, add, CVD
  OR: 1.28
PROVEIT, rs10460737, caseonly, add, CVD
  OR: 0.10
PROVEIT, rs10738948, caseonly, add, CHD
  OR: 0.68
PROVEIT, rs11668038, caseonly, add, CHD
  OR: 1.54
PROVEIT, rs12608167, cohort, dom, CVD
  OR: 0.63
PROVEIT, rs13103899, caseonly, dom, CVD
  OR: 0.53
PROVEIT, rs13117043, caseonly, dom, CHD
  OR: 1.74
PROVEIT, rs17035071, caseonly, dom, CHD
  OR: 1.60
PROVEIT, rs17310169, caseonly, dom, CVD
  OR: 0.61
PROVEIT, rs17718867, caseonly, add, CHD
  OR: 0.77
PROVEIT, rs77638540, cohort, dom, CVD
  OR: 0.49
SNP rs250162 allele C, model ADD, Imputed, ATORVA vs PRAVA
  OR: 0.6714
SNP rs250162 allele C, model DOM, Imputed, ATORVA vs PRAVA
  OR: 0.6417
SNP rs264129 allele T, model DOM, Imputed, ATORVA vs PRAVA
  OR: 0.6399
SNP rs277411 allele G, model DOM, Imputed, ATORVA vs PRAVA
  OR: 1.109
SNP rs373983 allele G, model DOM, Imputed, ATORVA vs PRAVA
  OR: 1.954
SNP rs399485 allele A, model DOM, Imputed, ATORVA vs PRAVA
  OR: 1.648
SNP rs483159 allele T, model DOM, Imputed, ATORVA vs PRAVA
  OR: 1.953
SNP rs2389866 allele C, model DOM, Imputed, ATORVA vs PRAVA
  OR: 0.5404
SNP rs2389869 allele C, model DOM, Imputed, ATORVA vs PRAVA
  OR: 0.5404
SNP rs2389870 allele C, model DOM, Genotyped, ATORVA vs PRAVA
  OR: 0.5285
SNP rs2418494 allele G, model ADD, Imputed, ATORVA vs PRAVA
  OR: 0.6959
SNP rs2418541 allele A, model DOM, Imputed, ATORVA vs PRAVA
  OR: 0.593
SNP rs2418542 allele A, model DOM, Imputed, ATORVA vs PRAVA
  OR: 0.593
SNP rs2423556 allele C, model DOM, Imputed, ATORVA vs PRAVA
  OR: 0.5931
SNP rs2437688 allele C, model ADD, Imputed, ATORVA vs PRAVA
  OR: 2.041
SNP rs2456809 allele G, model DOM, Imputed, ATORVA vs PRAVA
  OR: 1.173
SNP rs2456811 allele T, model ADD, Imputed, ATORVA vs PRAVA
  OR: 1.146
SNP rs2456811 allele T, model DOM, Imputed, ATORVA vs PRAVA
  OR: 1.202
SNP rs2476976 allele C, model DOM, Imputed, ATORVA vs PRAVA
  OR: 1.391
SNP rs2484911 allele A, model DOM, Imputed, ATORVA vs PRAVA
  OR: 1.347
SNP rs2488557 allele C, model DOM, Imputed, ATORVA vs PRAVA
  OR: 0.924
SNP rs2560708 allele T, model ADD, Imputed, ATORVA vs PRAVA
  OR: 0.7416
SNP rs2617841 allele G, model DOM, Imputed, ATORVA vs PRAVA
  OR: 0.7326
SNP rs2622499 allele G, model DOM, Imputed, ATORVA vs PRAVA
  OR: 0.5404
SNP rs2642936 allele T, model ADD, Imputed, ATORVA vs PRAVA
  OR: 0.9768
SNP rs2660633 allele A, model DOM, Imputed, ATORVA vs PRAVA
  OR: 1.204
SNP rs2660634 allele C, model DOM, Imputed, ATORVA vs PRAVA
  OR: 1.204
SNP rs2660648 allele A, model ADD, Imputed, ATORVA vs PRAVA
  OR: 1.135
SNP rs2660648 allele A, model DOM, Imputed, ATORVA vs PRAVA
  OR: 1.187
SNP rs2681505 allele T, model ADD, Imputed, ATORVA vs PRAVA
  OR: 0.8499
SNP rs2832634 allele G, model ADD, Imputed, ATORVA vs PRAVA
  OR: 1.764
SNP rs2832637 allele T, model ADD, Imputed, ATORVA vs PRAVA
  OR: 1.764
SNP rs2843167 allele A, model DOM, Imputed, ATORVA vs PRAVA
  OR: 1.111
SNP rs2876227 allele C, model ADD, Imputed, ATORVA vs PRAVA
  OR: 1.389
SNP rs2909862 allele G, model DOM, Imputed, ATORVA vs PRAVA
  OR: 1.083
SNP rs3001945 allele T, model DOM, Imputed, ATORVA vs PRAVA
  OR: 1.72
SNP rs3011020 allele C, model DOM, Imputed, ATORVA vs PRAVA
  OR: 1.747
SNP rs3743794 allele G, model DOM, Imputed, ATORVA vs PRAVA
  OR: 0.8871
SNP rs3756154 allele C, model ADD, Imputed, ATORVA vs PRAVA
  OR: 0.6137
SNP rs3756154 allele C, model DOM, Imputed, ATORVA vs PRAVA
  OR: 0.5162
SNP rs3775850 allele A, model DOM, Imputed, ATORVA vs PRAVA
  OR: 0.5373
SNP rs3775851 allele C, model DOM, Imputed, ATORVA vs PRAVA
  OR: 0.5373
SNP rs3793044 allele C, model ADD, Imputed, ATORVA vs PRAVA
  OR: 1.091
SNP rs3793053 allele C, model DOM, Imputed, ATORVA vs PRAVA
  OR: 0.9919
SNP rs3796246 allele G, model DOM, Imputed, ATORVA vs PRAVA
  OR: 0.9829
SNP rs3806003 allele A, model ADD, Imputed, ATORVA vs PRAVA
  OR: 1.091
SNP rs3806004 allele T, model DOM, Imputed, ATORVA vs PRAVA
  OR: 0.982
SNP rs3806010 allele T, model DOM, Imputed, ATORVA vs PRAVA
  OR: 0.982
SNP rs3806014 allele T, model DOM, Imputed, ATORVA vs PRAVA
  OR: 1.002
SNP rs3806015 allele A, model DOM, Imputed, ATORVA vs PRAVA
  OR: 0.9945
SNP rs3806018 allele A, model DOM, Imputed, ATORVA vs PRAVA
  OR: 0.982
SNP rs3806019 allele A, model DOM, Imputed, ATORVA vs PRAVA
  OR: 0.9676
SNP rs3806024 allele T, model DOM, Imputed, ATORVA vs PRAVA
  OR: 1.001
SNP rs3942254 allele T, model ADD, Imputed, ATORVA vs PRAVA
  OR: 0.7577
SNP rs3942254 allele T, model DOM, Imputed, ATORVA vs PRAVA
  OR: 0.6591
SNP rs3945085 allele A, model DOM, Imputed, ATORVA vs PRAVA
  OR: 1.324
SNP rs3976737 allele G, model ADD, Imputed, ATORVA vs PRAVA
  OR: 1.239
SNP rs4029119 allele G, model ADD, Imputed, ATORVA vs PRAVA
  OR: 0.9741
SNP rs4029119 allele G, model DOM, Imputed, ATORVA vs PRAVA
  OR: 1.136
SNP rs4076201 allele G, model REC, Imputed, ATORVA vs PRAVA
  OR: 1.982
SNP rs4146972 allele T, model DOM, Genotyped, ATORVA vs PRAVA
  OR: 1.832
SNP rs4238087 allele G, model DOM, Imputed, ATORVA vs PRAVA
  OR: 0.5579
SNP rs4251569 allele T, model ADD, Imputed, ATORVA vs PRAVA
  OR: 0.645
SNP rs4251569 allele T, model DOM, Imputed, ATORVA vs PRAVA
  OR: 0.5571
SNP rs4273613 allele T, model ADD, Imputed, ATORVA vs PRAVA
  OR: 0.9741
SNP rs4273613 allele T, model DOM, Imputed, ATORVA vs PRAVA
  OR: 1.136
SNP rs4315598 allele T, model ADD, Imputed, ATORVA vs PRAVA
  OR: 1.389
SNP rs4315598 allele T, model REC, Imputed, ATORVA vs PRAVA
  OR: 2.069
SNP rs4321395 allele A, model DOM, Imputed, ATORVA vs PRAVA
  OR: 1.094
SNP rs4321596 allele T, model REC, Genotyped, ATORVA vs PRAVA
  OR: 2.583
SNP rs4324417 allele T, model DOM, Imputed, ATORVA vs PRAVA
  OR: 1.061
SNP rs4328619 allele G, model DOM, Genotyped, ATORVA vs PRAVA
  OR: 0.5613
SNP rs4338909 allele T, model ADD, Imputed, ATORVA vs PRAVA
  OR: 0.998
SNP rs4370878 allele G, model DOM, Imputed, ATORVA vs PRAVA
  OR: 1.312
SNP rs4379434 allele T, model DOM, Genotyped, ATORVA vs PRAVA
  OR: 0.9929
SNP rs4416407 allele T, model DOM, Imputed, ATORVA vs PRAVA
  OR: 1.387
SNP rs4417899 allele C, model REC, Imputed, ATORVA vs PRAVA
  OR: 0.7208
SNP rs4442732 allele A, model ADD, Imputed, ATORVA vs PRAVA
  OR: 0.9155
SNP rs4444612 allele G, model ADD, Imputed, ATORVA vs PRAVA
  OR: 1.389
SNP rs4444612 allele G, model REC, Imputed, ATORVA vs PRAVA
  OR: 2.069
SNP rs4509702 allele C, model DOM, Imputed, ATORVA vs PRAVA
  OR: 1.312
SNP rs4533145 allele T, model DOM, Imputed, ATORVA vs PRAVA
  OR: 1.764
SNP rs4557006 allele A, model DOM, Imputed, ATORVA vs PRAVA
  OR: 1.096
SNP rs4570530 allele C, model DOM, Imputed, ATORVA vs PRAVA
  OR: 1.312
